Patent EP0343258B1, “AGENT FOR PROPHYLAXIS AND TREATMENT OF VIRALLY INFECTED DISEASES” (MITSUI TOATSU CHEMICALS, Inc., priority 1987, dated 1989)
At least one peptide structure holds a part that was inferred or is arguable (an end, a ring closure or a residue). Non-standard residues stand in square brackets, D forms with d. Residues, ends and D or L forms follow the SMILES beside them. pGlu = O=C1CC[C@@H](C(=O)O)N1

Assays:
[1] = system: human T lymphocytes infected with HTLV-I; type: cell-based
[2] = system: MT-4 infected with HTLV-III; type: cell-based
[3] = system: monkey rotavirus SA 11 strain; test: Rotavirus infection experiment (SA 11 strain); details: in vivo
[4] = system: human T lymphocytes infected with HTLV-II; type: cell-based
[5] = system: rotavirus (Nebraska strain); test: Rotavirus infection experiment (Nebraska strain); design: species or system cattle; details: bovine, in vivo

C[C@H](NC(=O)[C@@H]1CCC(=O)N1)C(=O)N[C@@H](CCCCN)C(=O)N[C@@H](CO)C(=O)N[C@@H](CCC(N)=O)C(=O)NCC(=O)NCC(=O)N[C@@H](CO)C(=O)N[C@@H](CC(N)=O)C(=O)O [FTS, pGlu-Ala-Lys-Ser-Gln-Gly-Gly-Ser-Asn] ([pGlu]AKSQGGSN-OH)
action on destruction of cells, cell stability and propagation of virus [1]: an inhibitory action to destroy of cells, a cells-stabilizing action and an inhibitory action to propagation of virus | action on destruction of cells, cell stability and propagation of virus [2]: an inhibitory action to destroy of cells, a cells-stabilizing action and an inhibitory action to propagation of virus | inhibition of death/extension of life span, prevention and remedy of infection diseases [3]: effective | action on destruction of cells, cell stability and propagation of virus [4]: an inhibitory action to destroy of cells, a cells-stabilizing action and an inhibitory action to propagation of virus | inhibition of death/extension of life span, prevention and remedy of infection diseases [5]: effective
